This is one part of the list.
Assays:
Experiment in all cases: glycan array binding signal (z-score within array); higher = stronger binding
Conditions in all cases: glycan notation: IUPAC condensed, linker removed
[1] = molecular target: Gal(b1-4)GlcNAc(b1-2)[Gal(b1-4)GlcNAc(b1-6)]Man(a1-6)[GlcNAc(b1-4)][Gal(b1-4)GlcNAc(b1-2)Man(a1-3)]Man(b1-4)GlcNAc(b1-4)GlcNAc
In short: (§1)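 The binding signal is a Z-score computed within each array and averaged over linkers. Arrays of the same protein sequence at different concentrations or buffers were also averaged together. Data originate from 3228 arrays in the Consortium for Functional Glycomics database, kept only where the protein sequence was available.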

[2] = molecular target: Gal(b1-4)GlcNAc(b1-2)[Gal(b1-4)GlcNAc(b1-6)]Man(a1-6)[GlcNAc(b1-4)][Gal(b1-4)GlcNAc(b1-2)[Gal(b1-4)GlcNAc(b1-4)]Man(a1-3)]Man(b1-4)GlcNAc(b1-4)[Fuc(a1-6)]GlcNAc
In short: as §1

[3] = molecular target: Gal(b1-4)GlcNAc(b1-3)Gal(b1-3)GalNAc
In short: as §1

[4] = molecular target: Gal(b1-4)GlcNAc(b1-3)Gal(b1-3)GlcNAc
In short: as §1

[5] = molecular target: Gal(b1-4)GlcNAc(b1-3)Gal(b1-4)Glc
In short: as §1

[6] = molecular target: Gal(b1-4)GlcNAc(b1-3)Gal(b1-4)GlcNAc
In short: as §1

[7] = molecular target: Gal(b1-4)GlcNAc(b1-3)Gal(b1-4)GlcNAc(b1-2)Man(a1-3)[Gal(b1-4)GlcNAc(b1-3)Gal(b1-4)GlcNAc(b1-2)Man(a1-6)]Man(b1-4)GlcNAc(b1-4)GlcNAc
In short: as §1

[8] = molecular target: Gal(b1-4)GlcNAc(b1-3)Gal(b1-4)GlcNAc(b1-2)Man(a1-3)[Gal(b1-4)GlcNAc(b1-3)Gal(b1-4)GlcNAc(b1-2)Man(a1-6)]Man(b1-4)GlcNAc(b1-4)[Fuc(a1-6)]GlcNAc
In short: as §1

[9] = molecular target: Gal(b1-4)GlcNAc(b1-3)Gal(b1-4)GlcNAc(b1-2)[Gal(b1-4)GlcNAc(b1-3)Gal(b1-4)GlcNAc(b1-6)]Man(a1-6)[Gal(b1-4)GlcNAc(b1-3)Gal(b1-4)GlcNAc(b1-2)Man(a1-3)]Man(b1-4)GlcNAc(b1-4)GlcNAc
In short: as §1

[10] = molecular target: Gal(b1-4)GlcNAc(b1-3)Gal(b1-4)GlcNAc(b1-2)[Gal(b1-4)GlcNAc(b1-3)Gal(b1-4)GlcNAc(b1-6)]Man(a1-6)[Gal(b1-4)GlcNAc(b1-3)Gal(b1-4)GlcNAc(b1-2)Man(a1-3)]Man(b1-4)GlcNAc(b1-4)[Fuc(a1-6)]GlcNAc
In short: as §1

[11] = molecular target: Gal(b1-4)GlcNAc(b1-3)Gal(b1-4)GlcNAc(b1-3)Gal(b1-4)GlcNAc
In short: as §1

[12] = molecular target: Gal(b1-4)GlcNAc(b1-3)Gal(b1-4)GlcNAc(b1-3)Gal(b1-4)GlcNAc(b1-2)Man(a1-3)[Gal(b1-4)GlcNAc(b1-3)Gal(b1-4)GlcNAc(b1-3)Gal(b1-4)GlcNAc(b1-2)Man(a1-6)]Man(b1-4)GlcNAc(b1-4)GlcNAc
In short: as §1

[13] = molecular target: Gal(b1-4)GlcNAc(b1-3)Gal(b1-4)GlcNAc(b1-3)Gal(b1-4)GlcNAc(b1-2)Man(a1-3)[Gal(b1-4)GlcNAc(b1-3)Gal(b1-4)GlcNAc(b1-3)Gal(b1-4)GlcNAc(b1-2)Man(a1-6)]Man(b1-4)GlcNAc(b1-4)[Fuc(a1-6)]GlcNAc
In short: as §1

[14] = molecular target: Gal(b1-4)GlcNAc(b1-3)Gal(b1-4)GlcNAc(b1-3)Gal(b1-4)GlcNAc(b1-2)[Gal(b1-4)GlcNAc(b1-3)Gal(b1-4)GlcNAc(b1-3)Gal(b1-4)GlcNAc(b1-6)]Man(a1-6)[Gal(b1-4)GlcNAc(b1-3)Gal(b1-4)GlcNAc(b1-3)Gal(b1-4)GlcNAc(b1-2)Man(a1-3)]Man(b1-4)GlcNAc(b1-4)[Fuc(a1-6)]GlcNAc
In short: as §1

[15] = molecular target: Gal(b1-4)GlcNAc(b1-3)Gal(b1-4)GlcNAc(b1-3)Gal(b1-4)GlcNAc(b1-3)Gal(b1-4)GlcNAc(b1-2)Man(a1-3)[Gal(b1-4)GlcNAc(b1-3)Gal(b1-4)GlcNAc(b1-3)Gal(b1-4)GlcNAc(b1-3)Gal(b1-4)GlcNAc(b1-2)Man(a1-6)]Man(b1-4)GlcNAc(b1-4)GlcNAc
In short: as §1

[16] = molecular target: Gal(b1-4)GlcNAc(b1-3)Gal(b1-4)GlcNAc(b1-3)Gal(b1-4)GlcNAc(b1-3)Gal(b1-4)GlcNAc(b1-2)Man(a1-3)[Gal(b1-4)GlcNAc(b1-3)Gal(b1-4)GlcNAc(b1-3)Gal(b1-4)GlcNAc(b1-3)Gal(b1-4)GlcNAc(b1-2)Man(a1-6)]Man(b1-4)GlcNAc(b1-4)[Fuc(a1-6)]GlcNAc
In short: as §1

[17] = molecular target: Gal(b1-4)GlcNAc(b1-3)Gal(b1-4)GlcNAc(b1-3)Gal(b1-4)GlcNAc(b1-3)Gal(b1-4)GlcNAc(b1-2)[Gal(b1-4)GlcNAc(b1-3)Gal(b1-4)GlcNAc(b1-3)Gal(b1-4)GlcNAc(b1-3)Gal(b1-4)GlcNAc(b1-6)]Man(a1-6)[Gal(b1-4)GlcNAc(b1-3)Gal(b1-4)GlcNAc(b1-3)Gal(b1-4)GlcNAc(b1-3)Gal(b1-4)GlcNAc(b1-2)Man(a1-3)]Man(b1-4)GlcNAc(b1-4)[Fuc(a1-6)]GlcNAc
In short: as §1

[18] = molecular target: Gal(b1-4)GlcNAc(b1-3)Gal(b1-4)GlcNAc(b1-3)Gal(b1-4)GlcNAc(b1-3)Gal(b1-4)GlcNAc(b1-3)Gal(b1-4)GlcNAc(b1-2)Man(a1-3)[Gal(b1-4)GlcNAc(b1-3)Gal(b1-4)GlcNAc(b1-3)Gal(b1-4)GlcNAc(b1-3)Gal(b1-4)GlcNAc(b1-3)Gal(b1-4)GlcNAc(b1-2)Man(a1-6)]Man(b1-4)GlcNAc(b1-4)GlcNAc
In short: as §1

[19] = molecular target: Gal(b1-4)GlcNAc(b1-3)Gal(b1-4)GlcNAc(b1-3)Gal(b1-4)GlcNAc(b1-3)Gal(b1-4)GlcNAc(b1-3)Gal(b1-4)GlcNAc(b1-2)Man(a1-3)[Gal(b1-4)GlcNAc(b1-3)Gal(b1-4)GlcNAc(b1-3)Gal(b1-4)GlcNAc(b1-3)Gal(b1-4)GlcNAc(b1-3)Gal(b1-4)GlcNAc(b1-2)Man(a1-6)]Man(b1-4)GlcNAc(b1-4)[Fuc(a1-6)]GlcNAc
In short: as §1

[20] = molecular target: Gal(b1-4)GlcNAc(b1-3)Gal(b1-4)GlcNAc(b1-3)Gal(b1-4)GlcNAc(b1-3)Gal(b1-4)GlcNAc(b1-3)Gal(b1-4)GlcNAc(b1-2)[Gal(b1-4)GlcNAc(b1-3)Gal(b1-4)GlcNAc(b1-3)Gal(b1-4)GlcNAc(b1-3)Gal(b1-4)GlcNAc(b1-3)Gal(b1-4)GlcNAc(b1-6)]Man(a1-6)[Gal(b1-4)GlcNAc(b1-3)Gal(b1-4)GlcNAc(b1-3)Gal(b1-4)GlcNAc(b1-3)Gal(b1-4)GlcNAc(b1-3)Gal(b1-4)GlcNAc(b1-2)Man(a1-3)]Man(b1-4)GlcNAc(b1-4)[Fuc(a1-6)]GlcNAc
In short: as §1

[21] = molecular target: Gal(b1-4)GlcNAc(b1-3)Gal(b1-4)GlcNAc(b1-3)Gal(b1-4)GlcNAc(b1-3)Gal(b1-4)GlcNAc(b1-3)Gal(b1-4)GlcNAc(b1-3)Gal(b1-4)GlcNAc(b1-2)Man(a1-3)[Gal(b1-4)GlcNAc(b1-3)Gal(b1-4)GlcNAc(b1-3)Gal(b1-4)GlcNAc(b1-3)Gal(b1-4)GlcNAc(b1-3)Gal(b1-4)GlcNAc(b1-3)Gal(b1-4)GlcNAc(b1-2)Man(a1-6)]Man(b1-4)GlcNAc(b1-4)GlcNAc
In short: as §1

[22] = molecular target: Gal(b1-4)GlcNAc(b1-3)Gal(b1-4)GlcNAc(b1-3)GalNAc
In short: as §1

[23] = molecular target: Gal(b1-4)GlcNAc(b1-3)Gal(b1-4)GlcNAc(b1-3)[Gal(b1-4)GlcNAc(b1-3)Gal(b1-4)GlcNAc(b1-6)]GalNAc
In short: as §1

B1: SJCP3842 (Schistosoma japonicum) (protein)
chain: MFKMRIINLVNISTVLLLINLLQTKSRLVGKENGFMLTVSIYGAQLSDKMTSVPVSWTIDYEDPEKSAFKKLVTDSCDTFSEYVKSQIPKGSVDGQCTSHIFQRPGSGSGVSISLTLSFIYVDVTQPDTVALKTELEKHFANFVTIHSHKITQAQFRINQKAIVIPTGDKDAIDGSKWKIIAIIALVALAIVVIGGFIYICVK
glycan array binding signal (z-score) [1]: 0.144
glycan array binding signal (z-score) [2]: -0.296
glycan array binding signal (z-score) [3]: -0.581
glycan array binding signal (z-score) [4]: 0.836
glycan array binding signal (z-score) [5]: 0.456
glycan array binding signal (z-score) [6]: -0.05
glycan array binding signal (z-score) [7]: 1.21
glycan array binding signal (z-score) [8]: 1.02
glycan array binding signal (z-score) [9]: 2
glycan array binding signal (z-score) [10]: -0.293
glycan array binding signal (z-score) [11]: 0.515
glycan array binding signal (z-score) [12]: 0.755
glycan array binding signal (z-score) [13]: 1.55
glycan array binding signal (z-score) [14]: 0.793
glycan array binding signal (z-score) [15]: -1.19
glycan array binding signal (z-score) [16]: 0.938
glycan array binding signal (z-score) [17]: -0.057
glycan array binding signal (z-score) [18]: 0.937
glycan array binding signal (z-score) [19]: -0.251
glycan array binding signal (z-score) [20]: 0.053
glycan array binding signal (z-score) [21]: -0.925
glycan array binding signal (z-score) [22]: 1.75
glycan array binding signal (z-score) [23]: 2.35

From the supplement of paper PMC8728848
